Source: article PMC8770743
Results are given in words; binding and its absence hold for the method and conditions named. Binding seen in cells or lysates may run through a third protein. Some entries that bind do so weakly or less than the wild type.

Tests used:
[1] = target: T1, heme oxygenase 1 (human (endogenous in PDLSCs)) (UniProt P09601); assay: co-IP; endogenous proteins in NP-40 lysate of human PDLSCs (cyclic mechanical stress; with or without t-BHQ); primary antibody (2.5 ug) and Protein A/G Plus Agarose at 4°C overnight, washed three times with NP-40 lysis buffer, western blotting
T1 sequence: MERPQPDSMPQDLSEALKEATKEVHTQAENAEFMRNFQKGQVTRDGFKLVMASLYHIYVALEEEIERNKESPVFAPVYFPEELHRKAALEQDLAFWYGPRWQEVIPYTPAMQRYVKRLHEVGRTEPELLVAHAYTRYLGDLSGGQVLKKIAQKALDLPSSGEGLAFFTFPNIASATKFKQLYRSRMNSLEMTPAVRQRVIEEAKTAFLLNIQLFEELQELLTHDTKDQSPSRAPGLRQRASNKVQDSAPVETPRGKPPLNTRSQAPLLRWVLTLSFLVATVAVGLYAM

[2] = target: T2, superoxide dismutase 2 (human (endogenous in PDLSCs)) (UniProt P04179); assay: as above
T2 sequence: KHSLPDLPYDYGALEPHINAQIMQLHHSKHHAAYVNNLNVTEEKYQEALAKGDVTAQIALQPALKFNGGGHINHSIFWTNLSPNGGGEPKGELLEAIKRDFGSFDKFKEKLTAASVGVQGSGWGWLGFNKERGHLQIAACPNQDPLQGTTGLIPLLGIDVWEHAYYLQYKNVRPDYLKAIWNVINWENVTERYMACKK

B1: superoxide dismutase 2 (enzyme, UniProt P04179 25-222)
chain: KHSLPDLPYDYGALEPHINAQIMQLHHSKHHAAYVNNLNVTEEKYQEALAKGDVTAQIALQPALKFNGGGHINHSIFWTNLSPNGGGEPKGELLEAIKRDFGSFDKFKEKLTAASVGVQGSGWGWLGFNKERGHLQIAACPNQDPLQGTTGLIPLLGIDVWEHAYYLQYKNVRPDYLKAIWNVINWENVTERYMACKK
Question: For B1, which binding [1] is on record?
Answer: The binding was “binds”.

B2: heme oxygenase 1 (enzyme, UniProt P09601 1-288)
chain: MERPQPDSMPQDLSEALKEATKEVHTQAENAEFMRNFQKGQVTRDGFKLVMASLYHIYVALEEEIERNKESPVFAPVYFPEELHRKAALEQDLAFWYGPRWQEVIPYTPAMQRYVKRLHEVGRTEPELLVAHAYTRYLGDLSGGQVLKKIAQKALDLPSSGEGLAFFTFPNIASATKFKQLYRSRMNSLEMTPAVRQRVIEEAKTAFLLNIQLFEELQELLTHDTKDQSPSRAPGLRQRASNKVQDSAPVETPRGKPPLNTRSQAPLLRWVLTLSFLVATVAVGLYAM
Question: With B2 as the binder, how does the binding [2] read?
Answer: The binding was “binds”.
